Data: publication PMC11253599
No constants are given. Whether binding was seen depends on the method and setting. In cells and extracts the contact can be indirect. Some entries that bind do so weakly or less than the wild type. For part of these data: Where a sequence is shown, tags or fusion partners need not be part of it.

Key:
[1] = biological target: T1, SAMHD1-HA (human SAMHD1, wild type, from pVR1012-SAMHD1-HA) (human), Q9Y3Z3; test: co-IP; anti-HA IP of SAMHD1-HA; endogenous MX2 detected by immunoblotting with an MX2-specific antibody; settings: remark: other sources report otherwise
[2] = biological target: T1, SAMHD1-HA (human SAMHD1, wild type, …); test: co-IP; HEK293T cells cotransfected, lysed 48 h later (150 mM Tris pH 7.5, 150 mM NaCl, 1% Triton X-100); anti-HA agarose beads at 4°C for 3 h or overnight; six washes; immunoblotting; settings: remark: other sources report otherwise

| Binder | binding [1] | binding [2] |
| --- | --- | --- |
| endogenous MX2 (myxovirus resistance protein 2) of PMA-differentiated U937 cells, P20592 1-715 (protein) MSKAHKPWPYRRRSQFSSRKYLKKEMNSFQQQPPPFGTVPPQMMFPPNWQGAEKDAAFLAKDFNFLTLNNQPPPGNRSQPRAMGPENNLYSQYEQKVRPCIDLIDSLRALGVEQDLALPAIAVIGDQSSGKSSVLEALSGVALPRGSGIVTRCPLVLKLKKQPCEAWAGRISYRNTELELQDPGQVEKEIHKAQNVMAGNGRGISHELISLEITSPEVPDLTIIDLPGITRVAVDNQPRDIGLQIKALIKKYIQRQQTINLVVVPCNVDIATTEALSMAHEVDPEGDRTIGILTKPDLMDRGTEKSVMNVVRNLTYPLKKGYMIVKCRGQQEITNRLSLAEATKKEITFFQTHPYFRVLLEEGSATVPRLAERLTTELIMHIQKSLPLLEGQIRESHQKATEELRRCGADIPSQEADKMFFLIEKIKMFNQDIEKLVEGEEVVRENETRLYNKIREDFKNWVGILATNTQKVKNIIHEEVEKYEKQYRGKELLGFVNYKTFEIIVHQYIQQLVEPALSMLQKAMEIIQQAFINVAKKHFGEFFNLNQTVQSTIEDIKVKHTAKAENMIQLQFRMEQMVFCQDQIYSVVLKKVREEIFNPLGTPSQNMKLNSHFPSNESSVSSFTEIGIHLNAYFLETSKRLANQIPFIIQYFMLRENGDSLQKAMMQILQEKNRYSWLLQEQSETATKRRILKERIYRLTQARHALCQFSSKEIH | binds | – |
| Myc-MX2-mCherry, P20592 1-715 (protein) MSKAHKPWPYRRRSQFSSRKYLKKEMNSFQQQPPPFGTVPPQMMFPPNWQGAEKDAAFLAKDFNFLTLNNQPPPGNRSQPRAMGPENNLYSQYEQKVRPCIDLIDSLRALGVEQDLALPAIAVIGDQSSGKSSVLEALSGVALPRGSGIVTRCPLVLKLKKQPCEAWAGRISYRNTELELQDPGQVEKEIHKAQNVMAGNGRGISHELISLEITSPEVPDLTIIDLPGITRVAVDNQPRDIGLQIKALIKKYIQRQQTINLVVVPCNVDIATTEALSMAHEVDPEGDRTIGILTKPDLMDRGTEKSVMNVVRNLTYPLKKGYMIVKCRGQQEITNRLSLAEATKKEITFFQTHPYFRVLLEEGSATVPRLAERLTTELIMHIQKSLPLLEGQIRESHQKATEELRRCGADIPSQEADKMFFLIEKIKMFNQDIEKLVEGEEVVRENETRLYNKIREDFKNWVGILATNTQKVKNIIHEEVEKYEKQYRGKELLGFVNYKTFEIIVHQYIQQLVEPALSMLQKAMEIIQQAFINVAKKHFGEFFNLNQTVQSTIEDIKVKHTAKAENMIQLQFRMEQMVFCQDQIYSVVLKKVREEIFNPLGTPSQNMKLNSHFPSNESSVSSFTEIGIHLNAYFLETSKRLANQIPFIIQYFMLRENGDSLQKAMMQILQEKNRYSWLLQEQSETATKRRILKERIYRLTQARHALCQFSSKEIH | – | binds |
| mCherry-MX2 (from pmCherry-C1-MX2), P20592 1-715 (protein) MSKAHKPWPYRRRSQFSSRKYLKKEMNSFQQQPPPFGTVPPQMMFPPNWQGAEKDAAFLAKDFNFLTLNNQPPPGNRSQPRAMGPENNLYSQYEQKVRPCIDLIDSLRALGVEQDLALPAIAVIGDQSSGKSSVLEALSGVALPRGSGIVTRCPLVLKLKKQPCEAWAGRISYRNTELELQDPGQVEKEIHKAQNVMAGNGRGISHELISLEITSPEVPDLTIIDLPGITRVAVDNQPRDIGLQIKALIKKYIQRQQTINLVVVPCNVDIATTEALSMAHEVDPEGDRTIGILTKPDLMDRGTEKSVMNVVRNLTYPLKKGYMIVKCRGQQEITNRLSLAEATKKEITFFQTHPYFRVLLEEGSATVPRLAERLTTELIMHIQKSLPLLEGQIRESHQKATEELRRCGADIPSQEADKMFFLIEKIKMFNQDIEKLVEGEEVVRENETRLYNKIREDFKNWVGILATNTQKVKNIIHEEVEKYEKQYRGKELLGFVNYKTFEIIVHQYIQQLVEPALSMLQKAMEIIQQAFINVAKKHFGEFFNLNQTVQSTIEDIKVKHTAKAENMIQLQFRMEQMVFCQDQIYSVVLKKVREEIFNPLGTPSQNMKLNSHFPSNESSVSSFTEIGIHLNAYFLETSKRLANQIPFIIQYFMLRENGDSLQKAMMQILQEKNRYSWLLQEQSETATKRRILKERIYRLTQARHALCQFSSKEIH | – | binds |
